{"source": "patent US20230002448A1", "about": "“COLLAGEN PRODUCTION” (3D Bio-tissues Limited, priority 2019, published 2023)", "key": {"C2C12 myoblasts [1]": {"tested_on": "C2C12 myoblasts", "type": "cell-based, mouse", "conditions": "PA self-assembled in water and diluted in SFM at 25 μM"}, "[2]": {"tested_on": "Human corneal stromal fibroblasts (hCSFs)", "assay": "Collagen deposition by Sirius-red/picric acid assay in hCSF cultures", "type": "cell-based"}, "[3]": {"assay": "Critical aggregation concentration (cac) of the peptide amphiphile", "type": "physicochemical", "conditions": "solubilised in deionised water or DMEM-F12 serum-free medium"}, "[4]": {"tested_on": "Human corneal stromal fibroblasts (hCSFs)", "assay": "Cell proliferation by Alamar Blue assay in hCSF cultures", "type": "cell-based", "conditions": "vs 0 μM control, up to 7 days"}, "[5]": {"tested_on": "human adipose-derived mesenchymal stem cells (hASCs)", "assay": "Collagen deposition by Sirius-red/picric acid assay in hASC cultures", "type": "cell-based", "conditions": "ETTES solubilised in water, up to 500 μM; 7 days; vs control"}, "[6]": {"tested_on": "Human corneal stromal fibroblasts (hCSFs)", "assay": "Cell migration scratch assay", "type": "cell-based", "conditions": "50 μM, SFM-solubilised PA; 2 days; vs control (CTR SFM)"}, "C2C12 myoblasts [7]": {"tested_on": "C2C12 myoblasts", "assay": "Collagen deposition by Sirius-red/picric acid assay in myoblasts", "type": "cell-based, mouse", "conditions": "PA self-assembled in water and diluted in SFM at 25 μM; 7 days"}, "[8]": {"conditions": "ETTES solubilised in SFM at 500 μM, 7 days, vs control"}}, "note": "Not every detail of the peptide structures is certain; ends, links or a residue may be inferred. Where a SMILES comes first, the peptide text is derived from it."}
{"smiles": "CCCCCCCCCCCCCCCC(=O)N[C@@H](CCC(=O)O)C(=O)N[C@H](C(=O)N[C@H](C(=O)N[C@@H](CCC(=O)O)C(=O)N[C@@H](CO)C(=O)O)[C@@H](C)O)[C@@H](C)O", "note": "[C16-ETTES] (HELM PEPTIDE1{[CCCCCCCCCCCCCCCC(=O)[*:2]].E.T.T.E.S}$$$$V2.0)", "values": [{"measurement": "C2C12 myoblast proliferation", "setting": "C2C12 myoblasts [1]", "result": "significantly promoting cell proliferation"}, {"measurement": "collagen production by hCSFs, in bulk", "setting": "[2]; [8]", "result": "significantly increased collagen production"}, {"measurement": "collagen production by hCSFs, per individual cell", "setting": "[2]; [8]", "result": "significantly increased collagen production"}, {"measurement": "collagen production in scratches (total deposited collagen after the scratch)", "setting": "[2]; scratch model, 50 μM, 2 days, vs control (CTR SFM)", "result": "significantly increased"}, {"measurement": "critical aggregation concentration (cac)", "setting": "[3]", "result": "around 5 mM"}, {"measurement": "effect on hCSF proliferation (cell number, Alamar Blue)", "setting": "[4]; PA initially solubilised in water, added to fresh SFM at 50 and 500 μM", "result": "significantly reduce cell number over time"}, {"measurement": "effect on hCSF proliferation (cell number, Alamar Blue)", "setting": "[4]; PA solubilised in cationic solvent (SFM), added to fresh SFM up to 500 μM", "result": "did not affect cell proliferation"}, {"measurement": "collagen production by hASCs, in bulk", "setting": "[5]", "result": "significantly increased collagen production"}, {"measurement": "collagen production by hASCs, per individual cell", "setting": "[5]", "result": "significantly increased collagen production"}, {"measurement": "hCSF migration (wound closure, scratch assay)", "setting": "[6]", "result": "significantly reduced cell migration"}, {"measurement": "C2C12 myoblast collagen deposition", "setting": "C2C12 myoblasts [7]", "result": "significantly promoting cell proliferation and collagen deposition"}]}
